Experimental findings from article PMC7819943, “Rice protein-binding microarrays: a tool to detect cis-acting elements near promoter regions in rice” are described below.

The chains behind the UniProt entries cited, without tags or fusion partners.
UniProt Q0JBA9, entry or part of it: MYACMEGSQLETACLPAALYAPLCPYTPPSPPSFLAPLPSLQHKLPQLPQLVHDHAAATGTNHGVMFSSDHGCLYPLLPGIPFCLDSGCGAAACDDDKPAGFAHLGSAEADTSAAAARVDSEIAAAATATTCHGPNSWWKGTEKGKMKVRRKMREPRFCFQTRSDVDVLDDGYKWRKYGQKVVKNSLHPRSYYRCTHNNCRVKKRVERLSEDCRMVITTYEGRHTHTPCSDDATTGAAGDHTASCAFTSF

The list shows a part of the results.

The experiment addresses OsWRKY34 (Oryza sativa, UniProt Q0JBA9 1-250). Kind of experiment: protein-binding microarray (RPBM); PBS, 2% BSA, 51.3 ng/ul salmon testes DNA, 50 uM zinc acetate, 200 nM TF, 25 C, 1 h; high values mean tight binding. The settings on record: protein: recombinant; tags: N-terminal polyhistidine and DsRed monomer fusion (pET32a); label: CyDye5-dUTP incorporated in the synthesized complementary strand; 3' TTTTT single-stranded linker to array surface; dsDNA, one strand shown. Summed up: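 The binding signal is fluorescence intensity per feature, in arbitrary units, read on an Axon 4000B scanner. Polyhistidine- and DsRed-tagged transcription factors (N-terminal fusions) from E. coli BL21-CodonPlus were purified on Ni–NTA and applied at 200 nM for 1 h at 25 °C to a double-stranded, BSA-blocked custom Agilent array in buffer with 50 µM zinc acetate.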
“GATATTTGGGTTGGTTTACTTCAATTACAGTCAAATGGATCGGAGTCACCTAGTGCAG”: the binding signal was 8670 fluorescence intensity (a.u.).

As to “GCAACTGTGTTTTCAATTCTGCAAATGCTATTCTCTGTTACGGAGTCACCTAGTGCAG”, the binding signal is 11800 fluorescence intensity (a.u.).

“TCACTGACGCCGTCCTCGTTGTAGCCGATCCACGCACCAGCGGAGTCACCTAGTGCAG”: the binding signal was 8840 fluorescence intensity (a.u.).

On to “ATTGATTGACCGAGCGCACTACTCTTTATCTTTTCGATTGCGGAGTCACCTAGTGCAG”, for which the binding signal is 9920 fluorescence intensity (a.u.).

Turning to “TCCATCCTCGTCTCCACCCACCCACTCTTTATTCCCACCTCGGAGTCACCTAGTGCAG”, the binding signal is 9240 fluorescence intensity (a.u.).

For the sequence “CACCATACCACATTCACACCCATCACTGCGGAAACCGAACCGGAGTCACCTAGTGCAG”, the binding signal is 8480 fluorescence intensity (a.u.).

As to “TTTGCTCTACCCGTGCCCGACCCGACCCATTGCCATACCTCGGAGTCACCTAGTGCAG”, the binding signal is 9130 fluorescence intensity (a.u.).

Take “TCTCTCCACCGCATCTCTCCCTCAACCTCTCTCTTAGATCCGGAGTCACCTAGTGCAG”: the binding signal was 10300 fluorescence intensity (a.u.).

Regarding “TTAAAAAAGTCAACGGCGAACATTTAGAGTAGGAGGGAGTCGGAGTCACCTAGTGCAG”, the binding signal is 10100 fluorescence intensity (a.u.).

With “CTCGCTGATGTCATTTCTTGCTTGACCATTTCTGACAGATCGGAGTCACCTAGTGCAG”, the binding signal is 8950 fluorescence intensity (a.u.).

Regarding “TTCTTTATCCCATCTCGCGCGCTTTCCTTTCCTTTCCTTCCGGAGTCACCTAGTGCAG”, the binding signal is 11600 fluorescence intensity (a.u.).

Turning to “ACTGACATGTGGGTCTCATGAGTTTTATTATTTTTTCTAGCGGAGTCACCTAGTGCAG”, the binding signal is 8690 fluorescence intensity (a.u.).

Turning to “GCTTGCTCCAGGTGACCCAACTTTTCCATTTCCATGCATTCGGAGTCACCTAGTGCAG”, the binding signal is 11300 fluorescence intensity (a.u.).

Take “GCACCAATTAATATTGGAGCTATCGTTCTTCTTCCCATCACGGAGTCACCTAGTGCAG”: the binding signal was 8340 fluorescence intensity (a.u.).

“ATATGTTACAGTAAATTTTGCCCGTGCTCTTTGTAGATTTCGGAGTCACCTAGTGCAG”: the binding signal was 8900 fluorescence intensity (a.u.).

“CATACTTCATGCGATCGCGAGCTCGCGTAATCACGTGTCCCGGAGTCACCTAGTGCAG”: the binding signal was 8100 fluorescence intensity (a.u.).

On to “TCGGTGTGTTTGCTGGTCTGTAATGTACTAGGCTACCTAACGGAGTCACCTAGTGCAG”, for which the binding signal was 8500 fluorescence intensity (a.u.).

Turning to “AGGGAATATTTTTTTTTAGCGTTTGACCACTCGTCTTATACGGAGTCACCTAGTGCAG”, the binding signal is 11100 fluorescence intensity (a.u.).

As to “TCAGTAGTGTGGATTCTCTCGTGTAACAATGCACTCTTTTCGGAGTCACCTAGTGCAG”, the binding signal is 9550 fluorescence intensity (a.u.).

In the case of “GTTTTAGGCTTTTTGATTACAATTTATTTTCCAATCTTTACGGAGTCACCTAGTGCAG”, the binding signal is 8140 fluorescence intensity (a.u.).

“AGGCCACCGGCACCACCCGGTCACCCGTCCGCATCGTCGCCGGAGTCACCTAGTGCAG”: the binding signal was 8480 fluorescence intensity (a.u.).

As to “GCTGTTTTTTGACGTATAGTTGTCCTCTGTCGTGAGTTATCGGAGTCACCTAGTGCAG”, the binding signal is 12900 fluorescence intensity (a.u.).

On to “GGAGGAGGGGCGGCGGAGCGGGTGGTGGGGAGGCGACATGCGGAGTCACCTAGTGCAG”, for which the binding signal is 17900 fluorescence intensity (a.u.).

As for “GTATGTGTACTCTTGCTGTGATGTGTGGTCGATCGAGTCACGGAGTCACCTAGTGCAG”, the binding signal is 8600 fluorescence intensity (a.u.).

On to “GCAGTTGCATGGGTTTTTTTTTGTCCAAAAATAGATTTTTCGGAGTCACCTAGTGCAG”, for which the binding signal is 8510 fluorescence intensity (a.u.).

As to “CGTGTTGTGGCCTTTTTACTTTCTCACTTGTACAAATTTTCGGAGTCACCTAGTGCAG”, the binding signal was 9890 fluorescence intensity (a.u.).

Consider “GATTTAGTGTAAGTGGAATCTGTATTCCCTTTGATATTTTCGGAGTCACCTAGTGCAG”, for which the binding signal was 8350 fluorescence intensity (a.u.).

For the sequence “CTCATGTATTCTTTTTGCCGGGTCTTTTTTCATGTGTATTCGGAGTCACCTAGTGCAG”, the binding signal is 12600 fluorescence intensity (a.u.).

Regarding “CGAGCTGCTTAAACCTAACTCCACCTCTAGTTCATTTTGTCGGAGTCACCTAGTGCAG”, the binding signal is 8380 fluorescence intensity (a.u.).

With “CTCCCTCCGTTTCAAAATGTTTGACACCGTTGACTTTTTACGGAGTCACCTAGTGCAG”, the binding signal was 28300 fluorescence intensity (a.u.).

As for “ACTTTTCCGTCACATCGTTCTAATTTCTTCAAACTTCTAACGGAGTCACCTAGTGCAG”, the binding signal is 9730 fluorescence intensity (a.u.).

Take “GTGTCTTATTGGAAAATTTTGCCACTCTCGTAATCTTACACGGAGTCACCTAGTGCAG”: the binding signal is 11800 fluorescence intensity (a.u.).

Consider “TTGTCCCTTGTAATATGTAACATCCTCATCAATGTGTGAACGGAGTCACCTAGTGCAG”, for which the binding signal was 9420 fluorescence intensity (a.u.).

Turning to “TCATCTACAGTGCCTGAGAAATCATCATACCATATATTTTCGGAGTCACCTAGTGCAG”, the binding signal was 8240 fluorescence intensity (a.u.).

In the case of “CCACCACGCGAACGACGACTCGATCAACATCACCAGCCAGCGGAGTCACCTAGTGCAG”, the binding signal was 8770 fluorescence intensity (a.u.).

As for “ACTGTACGCTGCCTGCTGTACTGCTCGCTCTCCTCAGTCCCGGAGTCACCTAGTGCAG”, the binding signal was 8670 fluorescence intensity (a.u.).

For the sequence “GGCCCCACATGTCAGATTGTCCACGTCATCACTTTGTCTTCGGAGTCACCTAGTGCAG”, the binding signal is 12200 fluorescence intensity (a.u.).

In the case of “TCTGTTAAGCAGGTTTGTTCTCTTCGTCAATTTATTCTTCCGGAGTCACCTAGTGCAG”, the binding signal was 9190 fluorescence intensity (a.u.).

Consider “GATTTGCCGGCTTGCCATGGCTGCACGCACCAAAGGCCTCCGGAGTCACCTAGTGCAG”, for which the binding signal was 8720 fluorescence intensity (a.u.).

For “TTCTTCTCTCGTCTCTAGGCCTCTCCAACCCCGAGCTCGCCGGAGTCACCTAGTGCAG”, the binding signal is 11000 fluorescence intensity (a.u.).

For the sequence “CCGCGCCTGCGCCACCACCACCACCGTTCGTCCGCTCGCCCGGAGTCACCTAGTGCAG”, the binding signal is 8780 fluorescence intensity (a.u.).

In the case of “AAAAACTCCTATGTTTTTTCTTTCTATGGTTTTCCAACACCGGAGTCACCTAGTGCAG”, the binding signal is 8910 fluorescence intensity (a.u.).
